PubChem BioAssay AID504804 – Drosophila RNAi Screening Center – 2011
The deposit covers about 19,000 reagents; this is an unselected part of those with a known target gene and a result. In the full data, 47 (0.25%) are marked active. 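Signals are raw, not normalised; exact z-scores behind calls not deposited; actives needed confirmation, so some wells reaching 2 SD are inactive.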 The numbers tell different reagents against one gene apart. A plus sign joins genes that one reagent is predicted to hit.

Aim: 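Knock-downs shielding fly cells from apoptosis caused by DNA damage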 (primary screen)
System: Drosophila Kc cells
Reagent: long dsRNA against Drosophila genes, 0.5 µg dsRNA per well
Time to read-out: 96 h (48 h knock-down, then 48 h drug)
Conditions: doxorubicin 5 µg/ml for 48 h, added 48 h after dsRNA
Measurement: 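Luminescent ATP counts per replicate, not normalised, reflecting viable cells after 48 h dsRNA knock-down followed by 48 h of 5 µg/ml doxorubicin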
Scale: raw ATP luminescence: higher = more viable cells, protection from doxorubicin
Rule for the call: 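Active when both duplicate wells lie at least 2 SD above the plate mean and protection is confirmed by rescreening and independent dsRNAs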

gene knocked down,dsRNA no.,SD above plate mean,"raw ATP luminescence, replicate 1","raw ATP luminescence, replicate 2",call
CG10621,1,,71967,68317,inactive
orb2,1,,51260,43573,inactive
orb2,2,,72727,78847,inactive
orb2,3,,39697,38210,inactive
CG15753 (retired record),1,,63110,70390,inactive
CG2070,1,,40800,72590,inactive
CG5171,1,,1.25e5,1.00e5,inactive
Uck,1,,1.26e5,2.37e5,inactive
Uck,2,,53890,67130,inactive
tsh,1,,52770,60207,inactive
side-VII,1,,55600,31787,inactive
CG40948 (retired record),1,,2.06e5,2.38e5,inactive
CG15308,1,,3.73e5,3.66e5,inactive
CG31688 + CG31687,1,,48040,55443,inactive
RpS14a,1,,23950,24700,inactive
nom,1,,73707,75537,inactive
CG17732,1,,75183,59837,inactive
CG34047 (retired record),1,,1.63e5,1.67e5,inactive
CG15745 (retired record),1,,3.41e5,3.53e5,inactive
Ctf4,1,,67160,57137,inactive
CG32572,1,,3.23e5,3.18e5,inactive
CG32572,2,,3.46e5,3.16e5,inactive
Tsp29Fb,1,,40697,66710,inactive
Rcd2,1,,60983,67207,inactive
rngo,1,,1.53e5,1.93e5,inactive
Nepl20,1,,55970,33470,inactive
CG34310,1,,3.29e5,3.04e5,inactive
CG4022,1,,81273,55783,inactive
cal1,1,,49137,42487,inactive
mid,1,,29823,28927,inactive
CG3927,1,,64307,50737,inactive
Gr89a,1,,67000,60640,inactive
CG30195,1,,58477,48597,inactive
Cyp6a13,1,,73723,83117,inactive
crb,1,,38940,40360,inactive
alpha-Cat,1,,23543,25763,inactive
betaNACtes1,1,,3.17e5,2.65e5,inactive
CG17261,1,,26270,27893,inactive
CG11368,1,,44880,45620,inactive
lbk,1,,50507,69213,inactive
CG10576,1,,38020,42747,inactive
CG9922,1,,1.18e5,1.05e5,inactive
tex,1,,39743,38427,inactive
yellow-d2,1,,31663,61950,inactive
CG13131,1,,31457,53343,inactive
Ns1,1,,68490,64800,inactive
Sdb,1,at least 2 SD above plate mean,,,active
Sdb,2,,79043,52123,inactive
sra,1,,51083,57217,inactive
RpL14,1,,56217,66330,inactive
His3.3A,1,,23230,26817,inactive
Ance-3,1,,22913,86503,inactive
Ance-3,2,,63587,67040,inactive
CG31140,1,,2.48e5,2.81e5,inactive
CG31140,2,,48810,50837,inactive
CG31140,3,,65260,84390,inactive
CG7255,1,,30853,18587,inactive

Reformatted: entries from further up.
{"gene knocked down": "CG2070", "dsRNA no.": 1, "raw ATP luminescence, replicate 1": 40800, "raw ATP luminescence, replicate 2": 72590, "call": "inactive"}
{"gene knocked down": "CG5171", "dsRNA no.": 1, "raw ATP luminescence, replicate 1": 1.25e5, "raw ATP luminescence, replicate 2": 1.00e5, "call": "inactive"}
{"gene knocked down": "Uck", "dsRNA no.": 1, "raw ATP luminescence, replicate 1": 1.26e5, "raw ATP luminescence, replicate 2": 2.37e5, "call": "inactive"}
{"gene knocked down": "Uck", "dsRNA no.": 2, "raw ATP luminescence, replicate 1": 53890, "raw ATP luminescence, replicate 2": 67130, "call": "inactive"}
{"gene knocked down": "tsh", "dsRNA no.": 1, "raw ATP luminescence, replicate 1": 52770, "raw ATP luminescence, replicate 2": 60207, "call": "inactive"}
{"gene knocked down": "side-VII", "dsRNA no.": 1, "raw ATP luminescence, replicate 1": 55600, "raw ATP luminescence, replicate 2": 31787, "call": "inactive"}
{"gene knocked down": "CG40948 (retired record)", "dsRNA no.": 1, "raw ATP luminescence, replicate 1": 2.06e5, "raw ATP luminescence, replicate 2": 2.38e5, "call": "inactive"}
